Assay results taken from publication PMC11540327.

Sequences of proteins named here, by UniProt entry; tags and fusion partners are left off.
UniProt P25655: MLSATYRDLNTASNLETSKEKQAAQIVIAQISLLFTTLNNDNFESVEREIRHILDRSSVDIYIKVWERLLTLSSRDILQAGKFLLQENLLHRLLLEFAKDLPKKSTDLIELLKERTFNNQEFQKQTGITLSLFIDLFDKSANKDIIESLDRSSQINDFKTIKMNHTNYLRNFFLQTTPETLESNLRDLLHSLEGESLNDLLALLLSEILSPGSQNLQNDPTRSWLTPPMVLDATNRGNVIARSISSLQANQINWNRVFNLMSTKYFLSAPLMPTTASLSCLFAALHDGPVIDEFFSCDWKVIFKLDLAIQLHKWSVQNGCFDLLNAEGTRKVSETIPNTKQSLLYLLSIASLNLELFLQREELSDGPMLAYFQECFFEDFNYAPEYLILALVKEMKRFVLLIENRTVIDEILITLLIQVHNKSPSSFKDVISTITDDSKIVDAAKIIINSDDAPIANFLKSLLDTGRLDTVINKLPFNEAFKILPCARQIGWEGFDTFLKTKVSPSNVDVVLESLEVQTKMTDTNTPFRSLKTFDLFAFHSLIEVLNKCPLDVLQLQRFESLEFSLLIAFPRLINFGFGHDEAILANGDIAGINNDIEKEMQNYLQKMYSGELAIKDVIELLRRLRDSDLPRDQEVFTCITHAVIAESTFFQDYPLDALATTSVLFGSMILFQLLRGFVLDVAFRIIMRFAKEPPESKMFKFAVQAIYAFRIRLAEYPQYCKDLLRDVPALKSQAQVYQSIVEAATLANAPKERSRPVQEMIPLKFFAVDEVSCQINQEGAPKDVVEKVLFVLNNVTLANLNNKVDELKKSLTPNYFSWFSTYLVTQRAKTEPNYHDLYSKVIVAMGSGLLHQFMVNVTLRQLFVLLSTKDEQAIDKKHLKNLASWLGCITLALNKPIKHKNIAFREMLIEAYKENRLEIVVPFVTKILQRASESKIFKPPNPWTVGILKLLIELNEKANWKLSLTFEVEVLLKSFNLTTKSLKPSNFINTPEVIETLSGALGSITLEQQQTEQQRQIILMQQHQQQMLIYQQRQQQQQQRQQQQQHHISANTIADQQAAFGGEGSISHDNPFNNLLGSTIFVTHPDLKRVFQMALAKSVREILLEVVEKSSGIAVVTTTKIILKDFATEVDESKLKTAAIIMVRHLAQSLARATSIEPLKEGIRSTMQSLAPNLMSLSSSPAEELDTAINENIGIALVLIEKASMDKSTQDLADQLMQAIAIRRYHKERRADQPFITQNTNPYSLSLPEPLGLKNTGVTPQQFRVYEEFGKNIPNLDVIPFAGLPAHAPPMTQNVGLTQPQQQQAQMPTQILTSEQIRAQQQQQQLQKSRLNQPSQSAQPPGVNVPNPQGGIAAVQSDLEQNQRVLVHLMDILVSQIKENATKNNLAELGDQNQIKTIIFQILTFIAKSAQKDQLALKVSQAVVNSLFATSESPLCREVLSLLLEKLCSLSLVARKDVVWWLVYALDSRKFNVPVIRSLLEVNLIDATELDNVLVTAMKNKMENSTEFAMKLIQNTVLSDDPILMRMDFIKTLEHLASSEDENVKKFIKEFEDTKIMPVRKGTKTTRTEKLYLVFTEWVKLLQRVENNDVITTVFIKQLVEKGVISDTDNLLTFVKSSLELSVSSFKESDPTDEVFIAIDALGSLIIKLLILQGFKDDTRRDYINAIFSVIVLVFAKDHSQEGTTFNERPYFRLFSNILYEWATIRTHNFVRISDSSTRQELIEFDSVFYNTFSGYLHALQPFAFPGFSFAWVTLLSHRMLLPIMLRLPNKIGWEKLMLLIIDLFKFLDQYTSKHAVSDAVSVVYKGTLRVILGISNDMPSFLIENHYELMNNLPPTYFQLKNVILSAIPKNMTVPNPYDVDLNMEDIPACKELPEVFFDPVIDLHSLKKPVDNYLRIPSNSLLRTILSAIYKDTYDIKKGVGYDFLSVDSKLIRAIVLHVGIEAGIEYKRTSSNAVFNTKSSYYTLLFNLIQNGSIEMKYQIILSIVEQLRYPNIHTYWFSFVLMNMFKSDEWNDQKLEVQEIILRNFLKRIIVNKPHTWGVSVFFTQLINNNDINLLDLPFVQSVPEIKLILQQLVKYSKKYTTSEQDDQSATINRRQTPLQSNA

How the values were obtained:
Assay in all cases: proximity labelling; TurboID fused to the bait at its chromosomal locus; cells in synthetic media with 1 μM biotin for 2 hr; biotinylated proteins captured on streptavidin magnetic beads under stringent washes, TMT mass spectrometry; enrichment >1.5-fold and P < 0.05 over free TID expressed from the HIS3 promoter; triplicate (Not4) or duplicate (other baits)
Caf1-TID (S. cerevisiae) = molecular target: T1, Caf1-TID (S. cerevisiae) (UniProt P39008)
T1 sequence: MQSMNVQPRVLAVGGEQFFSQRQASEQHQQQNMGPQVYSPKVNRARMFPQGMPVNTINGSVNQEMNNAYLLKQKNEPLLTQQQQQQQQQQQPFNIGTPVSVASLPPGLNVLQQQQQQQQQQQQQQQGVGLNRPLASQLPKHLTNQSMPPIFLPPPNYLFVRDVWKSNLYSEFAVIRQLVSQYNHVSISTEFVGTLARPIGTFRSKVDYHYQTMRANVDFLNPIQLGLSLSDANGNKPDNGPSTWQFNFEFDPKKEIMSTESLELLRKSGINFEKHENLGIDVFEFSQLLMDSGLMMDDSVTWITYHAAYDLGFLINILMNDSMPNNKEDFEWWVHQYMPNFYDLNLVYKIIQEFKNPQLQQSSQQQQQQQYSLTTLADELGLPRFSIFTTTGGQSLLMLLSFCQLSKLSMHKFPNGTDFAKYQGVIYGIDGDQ

Dhh1-TID (S. cerevisiae) = molecular target: T2, Dhh1-TID (S. cerevisiae) (UniProt P39517)
T2 sequence: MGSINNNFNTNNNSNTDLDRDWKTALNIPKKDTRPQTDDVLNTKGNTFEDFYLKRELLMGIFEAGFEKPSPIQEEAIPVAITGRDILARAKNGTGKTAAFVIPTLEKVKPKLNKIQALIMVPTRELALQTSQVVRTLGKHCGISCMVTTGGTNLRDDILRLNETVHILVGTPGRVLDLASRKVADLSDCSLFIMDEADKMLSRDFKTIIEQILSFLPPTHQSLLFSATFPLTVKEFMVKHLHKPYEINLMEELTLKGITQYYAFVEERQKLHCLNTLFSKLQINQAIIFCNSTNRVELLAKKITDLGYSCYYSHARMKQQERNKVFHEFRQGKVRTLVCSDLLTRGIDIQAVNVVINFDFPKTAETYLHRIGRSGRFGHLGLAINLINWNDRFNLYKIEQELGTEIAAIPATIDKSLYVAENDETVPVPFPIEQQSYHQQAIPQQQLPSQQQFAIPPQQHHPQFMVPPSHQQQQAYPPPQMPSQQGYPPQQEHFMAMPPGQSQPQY

Not1-TID (S. cerevisiae) = Not1-TID (S. cerevisiae) (UniProt P25655)
[1] = molecular target: T3, Not4-TID-3HA (S. cerevisiae) (UniProt P34909)
T3 sequence: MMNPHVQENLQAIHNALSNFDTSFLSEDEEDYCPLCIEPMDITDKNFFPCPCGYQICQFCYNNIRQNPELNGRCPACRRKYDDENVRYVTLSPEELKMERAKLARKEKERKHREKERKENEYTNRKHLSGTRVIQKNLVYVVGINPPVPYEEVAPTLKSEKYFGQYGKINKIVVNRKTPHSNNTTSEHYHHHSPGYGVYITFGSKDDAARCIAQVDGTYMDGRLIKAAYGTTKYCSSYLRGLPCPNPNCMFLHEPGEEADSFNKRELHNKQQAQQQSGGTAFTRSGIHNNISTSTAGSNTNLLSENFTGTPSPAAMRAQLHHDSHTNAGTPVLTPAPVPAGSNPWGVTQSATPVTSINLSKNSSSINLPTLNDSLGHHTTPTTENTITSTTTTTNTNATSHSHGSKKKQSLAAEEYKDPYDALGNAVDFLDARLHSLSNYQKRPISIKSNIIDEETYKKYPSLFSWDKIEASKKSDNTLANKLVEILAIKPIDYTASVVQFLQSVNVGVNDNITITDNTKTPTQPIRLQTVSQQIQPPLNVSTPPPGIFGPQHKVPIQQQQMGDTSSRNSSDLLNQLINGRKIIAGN

- binding (Caf1-TID (S. cerevisiae)): binds
- binding (Dhh1-TID (S. cerevisiae)): binds
- binding (Not1-TID (S. cerevisiae)): binds
- binding [1]: binds
B1: Def1 (protein, UniProt P35732 1-738)
chain: MSTQFRKSNHNSHSSKKLNPALKSKIDTLTELFPDWTSDDLIDIVQEYDDLETIIDKITSGAVTRWDEVKKPAKKEKYEKKEQQHSYVPQQHLPNPEDDITYKSSNNSNSFTSTKHNSSNNYTQARNKKKVQTPRAHTTGKHVNLDKGKHVPSKPVSNTTSWAAAVSVDTKHDVPQDSNDNNNEELEAQGQQAQEKNQEKEQEEQQQQEGHNNKEEHKQIEQPSLSSKKTTSRTSASQPKKMSWAAIATPKPKAVKKTESPLENVAELKKEISDIKKDDQKSEASEEKVNEQETSAQEQEEETAEPSEENEDRVPEVDGEEVQEEAEKKEQVKEEEQTAEELEQEQDNVAAPEEEVTVVEEKVEISAVISEPPEDQANTVPQPQQQSQQPQQPQQPQQPQQPQQPQQQQQPQQPQQPQQQLQQQQQQQQQPVQAQAQAQEEQLSQNYYTQQQQQQYAQQQHQLQQQYLSQQQQYAQQQQQHPQPQSQQPQSQQSPQSQKQGNNVAAQQYYMYQNQFPGYSYPGMFDSQGYAYGQQYQQLAQNNAQTSGNANQYNFQQGYGQAGANTAAANLTSAAAAAAASPATAHAQPQQQQPYGGSFMPYYAHFYQQSFPYGQPQYGVAGQYPYQLPKNNYNYYQTQNGQEQQSPNQGVAQHSEDSQQKQSQQQQQQQPQGQPQPEVQMQNGQPVNPQQQMQFQQYYQFQQQQQQAAAAAAAAAQQGVPYGYNGYDYNSKNSRGFY

These are yes or no findings as the source states them, for the method shown. In cells and extracts the contact can be indirect. These calls come from enrichment with a bait or labelling near it, and not all partners need be listed.
